PubChem BioAssay AID1159578, Peter MacCallum Cancer Centre | 2015

Aim: 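siRNA pools altering how lymphatic endothelial cells close a scratch wound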 (primary screen)
Cell system: human lymphatic endothelial cells
Knock-down reagent: siRNA pool against human genes, 40 nM
Duration: 48 h after transfection
Measured: 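Cells stained with dye and imaged after a scratch; covered wound area and nuclei counted, duplicates averaged, migration set against mock wells and turned into a robust z-score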
Direction: migration robust z-score: higher = faster migration into the scratch; nuclei per well: higher = more cells in the well
Active means: 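Pools averaging fewer than 3300 nuclei are never called; remaining pools count as changed when migration robust z lies outside -2 to 2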
Meaning of the calls: active = migration changed; inactive = no migration change, or too few cells
Here is one part, drawn at random, of about 18,000 reagents. About 1,030 of them (5.7%) were called active. 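Inactive calls also include pools with fewer than 3300 nuclei, whose migration was not assessed.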 The raw values are shown without normalisation. Further read-outs or replicates are left out here.

| Gene | migration robust z-score | nuclei per well, duplicate mean | activity call |
| --- | --- | --- | --- |
| FSCB | 0.36 | 3453 | inactive |
| TMEM158 | 1.52 | 7426 | inactive |
| NT5C1B | 0.18 | 5354 | inactive |
| AIDA | 0.76 | 5354 | inactive |
| ABCA4 | -0.72 | 7116 | inactive |
| TRAPPC8 | -0.52 | 5258 | inactive |
| TMOD2 | -0.43 | 5777 | inactive |
| SCO1 | -0.62 | 4934 | inactive |
| GRPR | -0.7 | 6327 | inactive |
| UFSP1 | -0.64 | 6526 | inactive |
| PSMA5 | 0.18 | 5413 | inactive |
| HIF3A | -1.22 | 4345 | inactive |
| FHL1 | 1.45 | 5350 | inactive |
| TPRKB | -0.58 | 6294 | inactive |
| SAXO6 | 1.07 | 5945 | inactive |
| WFDC5 | 1.43 | 6291 | inactive |
| DCST2 | 0.76 | 7337 | inactive |
| KLF3 | 0.36 | 4592 | inactive |
| MUS81 | 0.92 | 6396 | inactive |
| SH3RF1 | 0.55 | 6459 | inactive |
| STK32B | 0.49 | 4022 | inactive |
| AMZ1 | 0.7 | 6310 | inactive |
| GDPD1 | -0.16 | 5425 | inactive |
| MAGI1 | -2.99 | 3046 | inactive |
| MAK | -1.5 | 3977 | inactive |
| TRIM52 | 1.01 | 5403 | inactive |
| C1QTNF1 | -0.32 | 6697 | inactive |
| DRAP1 | 0.36 | 5088 | inactive |
| TNRC6A | -1.44 | 5829 | inactive |
| MATN1 | -0.29 | 5799 | inactive |
| ZNF789 | 0.3 | 5037 | inactive |
| AKAP12 | 1.31 | 6314 | inactive |
| BTD | -0.08 | 6004 | inactive |
| BCKDHA | -1.79 | 4785 | inactive |
| HBD | -0.65 | 5186 | inactive |
| AP2B1 | -3.25 | 5264 | active |
| HELZ | -0.54 | 5065 | inactive |
| CHCHD5 | -1.64 | 5624 | inactive |
| CHRNA6 | 0.52 | 5434 | inactive |
| DDX50 | 0.8 | 5926 | inactive |
| DCTN1 | -0.48 | 5397 | inactive |
| EMX1 | 0.21 | 5787 | inactive |
| MFN1 | 0.86 | 6154 | inactive |
| RNF215 | -0.88 | 4174 | inactive |
| CIMIP1 | 0.26 | 5582 | inactive |
| ZBTB40 | 0.81 | 4185 | inactive |
| APOBEC3C | -0.54 | 6162 | inactive |
| CHI3L2 | 1.19 | 7156 | inactive |
| GALNT15 | -1.06 | 6664 | inactive |
| SEC16B | 1.02 | 5577 | inactive |
| ZNF565 | 0.11 | 5515 | inactive |
| FANCF | -0.6 | 7247 | inactive |
| FBXL21P | -1.02 | 5837 | inactive |
| DNM1L | -2.46 | 4011 | active |
| RGPD5 | -1.04 | 5878 | inactive |
| VPS50 | -0.68 | 6108 | inactive |
| H4C3 | -0.48 | 6067 | inactive |

Sorted by “nuclei per well, duplicate mean” (high to low): some entries from above
| Gene | migration robust z-score | nuclei per well, duplicate mean | activity call |
| --- | --- | --- | --- |
| CHCHD5 | -1.64 | 5624 | inactive |
| AP2B1 | -3.25 | 5264 | active |
| HELZ | -0.54 | 5065 | inactive |
